Results from paper PMC4439739.
Results are given in words; binding and its absence hold for the method and conditions named. In cells and extracts the contact can be indirect. These calls come from enrichment with a bait or labelling near it, and not all partners need be listed. Tags and fused reporters may be left off the sequences shown.

Chains of the proteins cited; added tags and fusions are not shown.
UniProt Q5XKP0: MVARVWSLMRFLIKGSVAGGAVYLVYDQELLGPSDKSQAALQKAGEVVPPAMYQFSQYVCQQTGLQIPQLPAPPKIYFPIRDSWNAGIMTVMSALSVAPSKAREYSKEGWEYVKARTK

Columns and labels:
[1] = target: T1, MIC19 C-terminally tagged with HA-FLAG (human) (UniProt Q9NX63); test: affinity purification with mass spectrometry; validation: baits MIC60, MTX2 and MIC19 (HA-FLAG) expressed in HCT116 cells, immunopurified with α-HA; CompPASS scoring
T1 sequence: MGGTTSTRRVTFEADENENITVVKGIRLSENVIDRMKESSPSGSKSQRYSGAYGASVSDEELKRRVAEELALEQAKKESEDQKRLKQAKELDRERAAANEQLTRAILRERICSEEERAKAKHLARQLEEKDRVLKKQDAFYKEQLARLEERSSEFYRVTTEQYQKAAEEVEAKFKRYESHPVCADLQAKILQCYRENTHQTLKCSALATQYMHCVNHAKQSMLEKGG

[2] = target: T2, MIC60 C-terminally tagged with HA-FLAG (human) (UniProt Q16891); test: as above
T2 sequence: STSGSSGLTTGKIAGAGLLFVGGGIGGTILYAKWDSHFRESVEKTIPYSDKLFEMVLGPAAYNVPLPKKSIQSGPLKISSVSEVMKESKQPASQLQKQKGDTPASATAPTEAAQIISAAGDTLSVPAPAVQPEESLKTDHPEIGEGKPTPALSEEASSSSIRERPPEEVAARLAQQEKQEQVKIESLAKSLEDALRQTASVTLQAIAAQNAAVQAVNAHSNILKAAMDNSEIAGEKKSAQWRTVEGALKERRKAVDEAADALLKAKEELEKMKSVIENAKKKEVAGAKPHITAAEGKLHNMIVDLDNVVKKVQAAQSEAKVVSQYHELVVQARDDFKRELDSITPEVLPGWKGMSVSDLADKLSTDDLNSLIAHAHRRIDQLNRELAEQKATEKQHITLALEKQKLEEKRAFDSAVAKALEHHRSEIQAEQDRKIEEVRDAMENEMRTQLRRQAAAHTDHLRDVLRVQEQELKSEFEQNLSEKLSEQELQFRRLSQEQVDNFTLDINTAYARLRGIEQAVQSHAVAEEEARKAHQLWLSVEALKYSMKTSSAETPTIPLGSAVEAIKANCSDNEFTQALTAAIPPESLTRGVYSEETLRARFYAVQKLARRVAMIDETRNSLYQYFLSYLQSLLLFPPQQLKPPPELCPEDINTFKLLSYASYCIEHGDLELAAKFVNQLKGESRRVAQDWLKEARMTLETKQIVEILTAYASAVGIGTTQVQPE

[3] = target: T3, MTX2 C-terminally tagged with HA-FLAG (human) (UniProt O75431); test: as above
T3 sequence: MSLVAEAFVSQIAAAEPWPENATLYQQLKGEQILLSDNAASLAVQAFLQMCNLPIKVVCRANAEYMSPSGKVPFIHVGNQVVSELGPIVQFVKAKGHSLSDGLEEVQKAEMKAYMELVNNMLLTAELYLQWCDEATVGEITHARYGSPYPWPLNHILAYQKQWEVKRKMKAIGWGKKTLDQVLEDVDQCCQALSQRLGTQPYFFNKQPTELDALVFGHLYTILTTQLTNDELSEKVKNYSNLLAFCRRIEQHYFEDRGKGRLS

[4] = target: T4, MIC27 C-terminally tagged with HA-FLAG (human) (UniProt Q6UXV4); test: affinity purification with mass spectrometry; C-terminally HA-FLAG-tagged baits stably expressed in 293T cells; lysis in 1% digitonin; purified on α-FLAG beads; complexes trypsinized; CompPASS scoring (network of Figure 1B)
T4 sequence: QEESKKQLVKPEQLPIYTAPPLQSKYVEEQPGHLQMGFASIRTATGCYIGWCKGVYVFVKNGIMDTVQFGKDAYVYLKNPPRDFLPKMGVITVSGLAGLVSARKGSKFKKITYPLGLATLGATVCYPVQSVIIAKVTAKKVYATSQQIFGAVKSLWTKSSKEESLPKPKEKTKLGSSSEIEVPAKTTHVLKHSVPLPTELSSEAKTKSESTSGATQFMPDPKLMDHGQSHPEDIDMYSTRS

[5] = target: T1, MIC19 C-terminally tagged with HA-FLAG (human); test: as above
[6] = target: T2, MIC60 C-terminally tagged with HA-FLAG (human); test: as above
[7] = target: T3, MTX2 C-terminally tagged with HA-FLAG (human); test: as above

Measured: binding

QIL1 (C19orf70), endogenous (from UniProt Q5XKP0 1-118)
binds: all assays above
